Results are given in words; binding and its absence hold for the method and conditions named. In cells and extracts the contact can be indirect. A result given as binding can be weak or reduced; the word gives no strength.
Tests used:
Test in all cases: co-purification; StXPB variants co-expressed with Bax1^ΔC in E. coli; Ni-NTA by the His8 tag on StXPB, tag removed, HiTrap SP FF ion exchange, Superdex 200 gel filtration; samples shown by SDS-PAGE
[1] = target: StXPB mutant with R205A/D206A/D207A substitutions (RED motif) (Sulfurisphaera tokodaii)
[2] = target: StXPB mutant with deletion of residues 258 to 299 (ΔThM2) (Sulfurisphaera tokodaii)
[3] = target: StXPB mutant with deletion of residues 270 to 280 (ΔThM1) (Sulfurisphaera tokodaii)

Measured: binding

B1: StBax1^ΔC (truncated Bax1 without the C-terminal domain, residues 2-373) (domain or fragment, UniProt Q970I1 2-373)
chain: LPWELARFSIVKDEVLPHFATNEDLDLANEIISLFKAGKKLGEIDEEIEYLEKIYDHKLVRAFVKLLTRLCEFELDSPIPPIQIRRELFKYGPVLDEKEREDIIQKVSKKLGADIMRFVFSDLDEEKKIIKAPTISAEDLIRWYNLSLLQTLLFKAYKLTVYVSSNWKEIIRRAKWLGLMYFAYDKPLRFEFLGPATLVKLTEKYGRNLAVLLQFIISSQNWKIEAELVLGKKFKRVYKLKLANFKELKELVIDEKRFDSSVEEKFYKDFTNVIKGWKIIREPEPLVVDNRVFIPDFLVEKGNLKVYVEIVGFWTKEYIKEKLDKLKKVKYPILILLNEELGKEKFNGMNVITYKRKIDISLVYKWLRELEN
binds: all assays above
